No constants are given. Whether binding was seen depends on the method and setting. Binding seen in cells or lysates may run through a third protein. Binding calls can cover weak binding; strength is not graded here. Where a sequence is shown, tags or fusion partners need not be part of it.
Target: JUL1 fused to the N-terminal fragment of Venus (JUL1-nVenus) (Arabidopsis thaliana)
Experiment: split reporter; BiFC with nVenus and cVenus fusions co-expressed in Nicotiana benthamiana leaf cells by Agrobacterium infiltration; 50 uM MG132 applied after 24 h, fluorescence observed after a further 24 h

B1: bZIP53 fused to the C-terminal fragment of Venus (bZIP53-cVenus) (protein, UniProt Q9LZP8 1-146)
chain: MGSLQMQTSPESDNDPRYATVTDERKRKRMISNRESARRSRMRKQKQLGDLINEVTLLKNDNAKITEQVDEASKKYIEMESKNNVLRAQASELTDRLRSLNSVLEMVEEISGQALDIPEIPESMQNPWQMPCPMQPIRASADMFDC
In the case of B1, the binding is reported as “binds”.
